Data reported in patent US20220339257A1, “METHODS TO INCREASE THE SENSITIVITY AND REVERSING THE RESISTANCE TO DRUGS” (Biomarker Strategies, LLC, priority 2019, published 2022).
At least one structure is not confirmed: it was looked up by name or label, or the drawing left a doubt.

Columns and labels:
[1] = test system: HPAF-II cells; assay: Western blot of protein biomarkers; type: cell-based; conditions: trametinib alone; compared to control
Experimental: (§1) MTA and EM effects on protein biomarker expression were measured by western blotting. For the assay cell lines (Ca9-22, PE/CA-PJ15, HTB-38, HPAF-II, CAL27, BICR-16, A-253, Calu-6, PC-9, H1838, RPMI-7951 and A7) were cultured and treated with doses of MTAs alone, EMs alone and in combination and then lysed for protein analysis. This method can readily be conducted under adherent or suspension conditions, manually or on automated instruments, such as SnapPath. A total of 0.3×10^6 cells per well were seeded in 6 well plates with 10% FBS-containing media and incubated for 24 hours. Cells were then treated with MTA and/or EM concentrations for 24 hours. For total protein extraction, briefly, each sample media was collected, and wells were washed with HMS, and the wash was combined with its respective media collection. Cells were then detached using Accutase solution and again collected in its respective sample media and another HMS well wash and collection was performed. […] Cell lysates were quantified using Bio-Rad DC Protein Assay (Bio-Rad Cat. #5000116).
(§2) For all western blots, an equal amount of protein (3-5 μg) was loaded into SDS-polyacrylamide gels (Mini-Protean TGX Precast Gel; Bio-Rad, e.g. 7.5%, Cat. #4561024; 10%, Cat. #4561035; 12%, Cat. #4561045; or 4-15%, Cat. #4561085). […] Other assay types, such as Luminex multiplexed immunoassays, ICC, IHC, flow cytometry, etc. can be used readily.

[2] = test system: PC-9 cells; assay: Western blot of protein biomarkers; type: cell-based; conditions: trametinib alone; compared to control
Experimental: as §1, §2

## CC(=O)Nc1cccc(-n2c(=O)n(C3CC3)c(=O)c3c(Nc4ccc(I)cc4F)n(C)c(=O)c(C)c32)c1 [trametinib, Trametinib, reference compound]
[1]
  p-AKT expression: significantly increased p-AKT
[2]
  p-AKT expression: significantly increased p-AKT
